Measurements reported in PubChem BioAssay AID504774 (Drosophila RNAi Screening Center, 2011).
Assay: 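Genes required for cells to withstand methyl methanesulphonate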 (primary screen). Cell system: Drosophila Kc167 cells. Reagent: long dsRNA against Drosophila genes, about 0.25 µg dsRNA per well. Duration: about 6 days: 3 days knock-down, then 3 days with or without MMS. Conditions: methyl methanesulphonate 0.004% (w/v) for 3 days after knock-down. Detection: 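Viability in wells given MMS, read as ATP luminescence, normalised by quantiles plate by plate and averaged across replicates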. Scale: mean viability with MMS and viability with MMS: higher = more surviving cells after MMS.
In all, the deposit lists about 23,000 reagents; below is an unselected part of those with a known target gene and a result. 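Values are quantile-normalised luminescence on an arbitrary scale; higher means more cells surviving MMS.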 Names joined by + are all predicted targets of the reagent.

target gene | amplicon | mean viability with MMS | viability with MMS, replicate 1 | viability with MMS, replicate 2
CG13280 | DRSC02253 | 3.64e6 | 4.11e6 | 4.11e6
Gr93a | DRSC14593 | 3.56e6 | 4.09e6 | 3.98e6
CG18262 | DRSC18149 | 3.62e6 | 3.80e6 | 4.41e6
CG17959 | DRSC18142 | 3.60e6 | 4.18e6 | 3.99e6
Gr57a | DRSC06401 | 3.57e6 | 4.09e6 | 3.99e6
Ser6 | DRSC20574 | 3.58e6 | 4.02e6 | 4.08e6
CG32137 | DRSC10271 | 3.28e6 | 3.68e6 | 3.70e6
CG32137 | DRSC10272 | 3.20e6 | 3.62e6 | 3.52e6
CR34254 | DRSC09562 | 3.34e6 | 3.76e6 | 3.87e6
Ptp61F | DRSC08683 | 3.65e6 | 4.18e6 | 4.06e6
CG9961 | DRSC00738 | 3.44e6 | 3.84e6 | 3.94e6
CG9961 | DRSC23343 | 3.28e6 | 3.57e6 | 3.85e6
CG12016 + Dpm2 | DRSC08224 | 3.52e6 | 3.94e6 | 4.03e6
CG32026 | DRSC08950 | 3.58e6 | 4.09e6 | 4.03e6
beat-VI | DRSC14474 | 3.65e6 | 4.18e6 | 4.10e6
beat-VI | DRSC14727 | 3.61e6 | 4.09e6 | 4.09e6
CG13631 | DRSC14632 | 3.65e6 | 4.13e6 | 4.11e6
CG13631 | DRSC23168 | 3.45e6 | 3.85e6 | 3.99e6
CG17105 | DRSC02574 | 3.42e6 | 3.77e6 | 3.97e6
CG7126 | DRSC16201 | 3.39e6 | 3.75e6 | 3.96e6
CG43367 | DRSC08299 | 3.57e6 | 3.98e6 | 4.09e6
CG43367 | DRSC08301 | 3.53e6 | 4.00e6 | 3.99e6
CG43367 | DRSC08309 | 3.42e6 | 3.75e6 | 4.02e6
CG13437 | DRSC06397 | 3.61e6 | 4.04e6 | 4.12e6
CG17376 | DRSC21717 | 3.35e6 | 3.76e6 | 3.94e6
CG14787 | DRSC18606 | 3.50e6 | 4.04e6 | 3.92e6
ACXA | DRSC00844 | 3.67e6 | 4.13e6 | 4.14e6
CG10738 | DRSC09792 | 3.46e6 | 3.88e6 | 3.97e6
CG5376 | DRSC15782 | 3.34e6 | 3.86e6 | 3.76e6
Adgf-B | DRSC10568 | 3.59e6 | 3.94e6 | 4.20e6
thoc6 | DRSC10528 | 3.63e6 | 3.98e6 | 4.25e6
CG11145 | DRSC06049 | 3.51e6 | 4.00e6 | 3.97e6
CG12744 | DRSC06164 | 3.74e6 | 4.24e6 | 4.23e6
CG13250 | DRSC11698 | 3.71e6 | 4.15e6 | 4.18e6
DIP-zeta | DRSC02203 | 3.71e6 | 4.33e6 | 4.07e6
DIP-zeta | DRSC02204 | 3.62e6 | 3.98e6 | 3.97e6
DIP-zeta | DRSC02205 | 3.62e6 | 4.02e6 | 4.18e6
CG3588 | DRSC18473 | 3.50e6 | 4.06e6 | 3.90e6
Cchl | DRSC15949 | 3.58e6 | 4.05e6 | 4.07e6
CG34323 | DRSC18916 | 3.63e6 | 4.18e6 | 4.01e6
CG6602 | DRSC10673 | 3.55e6 | 4.15e6 | 3.91e6
Osi22 | DRSC16442 | 3.44e6 | 3.87e6 | 3.92e6
Ctps | DRSC09342 | 3.62e6 | 4.03e6 | 4.16e6
Ctps | DRSC10728 | 3.49e6 | 4.00e6 | 3.91e6
Ctps | DRSC10729 | 3.48e6 | 4.00e6 | 3.88e6
CG14551 | DRSC14894 | 3.53e6 | 3.93e6 | 4.06e6

6 successive entries from above, for reference:
target gene | amplicon | mean viability with MMS | viability with MMS, replicate 1 | viability with MMS, replicate 2
Adgf-B | DRSC10568 | 3.59e6 | 3.94e6 | 4.20e6
thoc6 | DRSC10528 | 3.63e6 | 3.98e6 | 4.25e6
CG11145 | DRSC06049 | 3.51e6 | 4.00e6 | 3.97e6
CG12744 | DRSC06164 | 3.74e6 | 4.24e6 | 4.23e6
CG13250 | DRSC11698 | 3.71e6 | 4.15e6 | 4.18e6
DIP-zeta | DRSC02203 | 3.71e6 | 4.33e6 | 4.07e6
